Measurements reported in publication PMC7497323 (2020).
End groups of sequences in plain letters are not given here.

Experiment: general procedure: Fmoc solid-phase peptide synthesis; polystyrene Breipohl amide resin; DIPCDI/HOBt
Details: whole synthesis, analytical reversed-phase HPLC

In the case of KWFETWFTEWPKKRK, the “final HPLC purity” value is reported as 98%.
In the case of RKKRRQRRR, the “final HPLC purity” value is reported as 99%.
